This is one part of the list.

The assay has as its system T1, CTL2-GFP (C. trachomatis L2/434/Bu, GFP-expressing).
T1 construct: L2/434/Bu, GFP-expressing
Also noted: species or system HeLa; Intracellular C. trachomatis growth in HeLa cells, bulk GFP fluorescence relative to DMSO. The settings on record: bulk GFP, single well; 28.5 h, 10 µM; inhibitor.
Regarding `COC(=O)c1csc2c1N[C@H](C1CC3C=CC1C3)[C@@H]1CCO[C@H]21` (stereo partly shown) [CBK303251], the “% of control remaining” value is given as 106.309%.

On to `COc1cc2c(cc1OC)C1c3ccccc3NC(c3ccccc3F)N1CC2` (stereo not shown) [CBK286311], for which the “% of control remaining” value was determined as 110.07%.

For the molecule `COc1ccccc1C1(NC(=O)c2cnsc2)CCCC1` [CBK283643], the “% of control remaining” value is listed as 117.604%.

Consider `O=C1c2ccc(S(=O)(=O)c3ccc4c(c3)C(=O)N(c3nccs3)C4=O)cc2C(=O)N1c1nccs1` [CBK261335], for which the “% of control remaining” value came out at 105.216%.

Regarding `CC1=CCC2(CC1)COC(C(C)(C)CN(C)C)OC2` (stereo not shown) [CBK011369], the “% of control remaining” value amounted to 112.059%.

Turning to `Cc1noc(C)c1NC(=O)c1ccno1` [CBK200394], the “% of control remaining” value was 124.665%.

On to `O=S(=O)(/N=C(/c1ccc(Cl)cc1)N1CCOCC1)c1ccccc1` [CBK293950], for which the “% of control remaining” value came out at 133.067%.

Regarding `Cc1cc(NC(=O)CCN2CCCCC2)no1` [CBK017079], the “% of control remaining” value is 136.927%.

For `O=C(NCc1cccs1)c1ccc2c(=O)n3c(nc2c1)CCN(Cc1ccccc1)CC3` [CBK286448], the “% of control remaining” value is 91.9802%.

Consider `O=C(Nc1nc2c(s1)CCCCC2)C1CN(S(=O)(=O)c2ccc(F)cc2)C1` [CBK286005], for which the “% of control remaining” value stood at 78.8665%.

For `COc1ccccc1OCC(O)CN1CCN(C(=O)c2ccccc2)CC1` (stereo not shown) [CBK074386C], the “% of control remaining” value amounted to 124.456%.

Consider `COc1ccc(CC(=O)N2CCC(Cc3ccccc3-c3ccccc3)(C(N)=O)CC2)cc1` [CBK285911], for which the “% of control remaining” value is on record as 118.932%.

As for `CCOC(=O)c1cnn(C2CCCN(Cc3c(C)n[nH]c3C)C2)c1` (stereo not shown) [CBK304059], the “% of control remaining” value is 120.597%.

For the molecule `O=C(c1c(F)cccc1F)N1CCC(c2cc3cccnc3[nH]2)CC1` [CBK284997], the “% of control remaining” value turned out to be 103.168%.

Consider `CCOC(=O)C1(C2CCCCC2)CCN(C(=O)CCSC)CC1` [CBK136929], for which the “% of control remaining” value amounted to 90.9528%.

Take `NS(=O)(=O)c1ccc(NC(=O)CSc2nc3sc4c(c3c(=O)n2-c2ccc(Cl)cc2)CCCC4)cc1` [CBK267577]: the “% of control remaining” value is 100%.

Consider `O=C(NCC(CO)Cc1ccccn1)c1ccc2cc[nH]c2c1` (stereo not shown) [CBK305222], for which the “% of control remaining” value stood at 121.534%.

Regarding `CC1=C(C(=O)OCc2ccccc2)C2(C(=O)Nc3ccccc32)C(C(=O)OCc2ccccc2)=C(N)O1` (stereo not shown) [CBK262576], the “% of control remaining” value was 100%.

As to `CN1CC(CO)Oc2ccccc21` (stereo not shown) [CBK003872C], the “% of control remaining” value stood at 121.935%.

As for `Cc1cc(C)n(CCCNC(=O)Cn2cnc3sc(C)c(C)c3c2=O)n1` [CBK305852], the “% of control remaining” value is listed as 131.921%.

As for `C=CCn1c2cc(C)sc2c2cnn(CC(=O)OCC)c(=O)c21` [CBK284165], the “% of control remaining” value stood at 96.4842%.

`CCc1ccc(OCC(=O)O/N=C(\N)c2ccncc2)c(Br)c1` [CBK265994]: the “% of control remaining” value is recorded as 98.1665%.

Turning to `CCOc1cc(C(=S)N2CCN(C)CC2)ccc1OCC(=O)N1CCOCC1` [CBK266856], the “% of control remaining” value worked out at 77.4028%.

For the molecule `NS(=O)(=O)c1ccc(NC(=O)CN2CCC(Cc3ccccc3)CC2)cc1` [CBK266161], the “% of control remaining” value was 147.318%.

For `O=C(Nc1ccc(O)c(-c2nc3ccccc3o2)c1)c1ccc(-c2ccc([N+](=O)[O-])cc2)o1` [CBK263439], the “% of control remaining” value was determined as 94.1797%.

Consider `CCOc1cc(OCC)cc(C(=O)Nc2ccc(-c3nc4ncccc4o3)cc2)c1` [CBK263440], for which the “% of control remaining” value is listed as 122.209%.

Take `N#CCCCCn1cc(NC(=O)NCCc2cccs2)cn1` [CBK044855]: the “% of control remaining” value is given as 100.784%.

As for `O=S(=O)(c1cccc2nonc12)N1CCCCCC1` [CBK265627], the “% of control remaining” value stood at 100%.

Regarding `CCN(CC)C(=O)Cn1nc(C)n2c(cc3ccsc32)c1=O` [CBK284104], the “% of control remaining” value stood at 100.574%.

`CCOC(=O)c1cnn2c(O)cc(CN(Cc3ccco3)C3CC3)nc12` [CBK305613]: the “% of control remaining” value is reported as 129.018%.

With `Cc1cc(CNCc2c(C(C)C)nn(C)c2N(C)C)no1` [CBK304855], the “% of control remaining” value is recorded as 96.9415%.

With `CCCCNCC(=O)Nc1sc2c(c1C(=O)O)CCCC2` [CBK287207], the “% of control remaining” value worked out at 131.183%.

Turning to `Cc1cc2oc(=O)cc(COC(=O)c3ccc(-n4cccn4)cc3)c2cc1Cl` [CBK296626], the “% of control remaining” value amounted to 121.86%.

For the molecule `CCN1CCN(C(=O)CN(Cc2ccccc2)S(=O)(=O)c2c(C)cc(C)cc2C)CC1` [CBK266670], the “% of control remaining” value amounted to 106.822%.

Turning to `CSCCN1CCC(Oc2nccnc2OC2CCCCC2)CC1` [CBK082873T], the “% of control remaining” value is given as 113.902%.

As for `COc1ccc(S(=O)(=O)N(C)CC(=O)Nc2cccc(C(F)(F)F)c2)cc1OC` [CBK266242], the “% of control remaining” value was 172.03%.

On to `COc1ccccc1-c1nnc(SCC(=O)O)n1-c1ccccc1` [CBK116149], for which the “% of control remaining” value is on record as 131.484%.

Regarding `C=C(C)Cn1c(SCC(C)C)nnc1-c1ccc(F)cc1` [CBK200085], the “% of control remaining” value was determined as 156.775%.

In the case of `CNC(=O)C1(C)CCCN1C(=O)c1cc2cc(C)ccc2n1C` (stereo not shown) [CBK281375], the “% of control remaining” value is reported as 145.068%.

On to `O=C(c1cc2c(s1)CCC2)N1CCC[C@H]1[C@H](O)c1nccs1` [CBK284287], for which the “% of control remaining” value is on record as 101.679%.

With `O=C1Nc2ccc(-c3ccsc3)cc2C1(O)O` [CBK000421], the “% of control remaining” value is 130.364%.

For the molecule `CCNC(=O)N1C(CC(=O)Nc2cccc(OC)c2)C(=O)NC2CCCCC21` (stereo not shown) [CBK269848], the “% of control remaining” value came to 135.674%.

Regarding `CCn1cc(-c2cncn2CCN(C)C2CCCC2)cn1` [CBK281551], the “% of control remaining” value is recorded as 124.533%.

For `CCOC(=O)CN1CCN(S(=O)(=O)c2ccc3ccccc3c2)CC1` [CBK043738], the “% of control remaining” value was found to be 109.038%.

Regarding `NC1=C(c2nc3ccccc3s2)C(=O)CN1CCN1CCOCC1` [CBK265946], the “% of control remaining” value is reported as 100%.

For `O=C(O)c1cccc(NC(=S)NC(=O)c2cccnc2)c1` [CBK265739], the “% of control remaining” value is on record as 131.572%.

As to `CCOC(=O)N1CCCC(=O)c2c(C(=O)O)cn(C)c21` [CBK005301], the “% of control remaining” value came out at 127.403%.

`COC(=O)c1c(C)[nH]c(C(=O)CSc2ncnc3scc(-c4ccccc4)c23)c1C` [CBK265918]: the “% of control remaining” value turned out to be 119.51%.

With `Cc1nn(-c2ccccc2)c(CN2C(=O)NC3(CCCC3)C2=O)c1C#N` [CBK305572], the “% of control remaining” value was 143.293%.

On to `O=C1NC(=O)C(CCCCN2CCC3(CCN(C(=O)c4cc(F)c(F)cc4F)C3)C2)N1` (stereo not shown) [CBK132147], for which the “% of control remaining” value is recorded as 129.9%.

On to `Cc1ccc(S(=O)(=O)Nc2nc3ccc(S(=O)(=O)N4CCOCC4)cc3s2)cc1` [CBK266988], for which the “% of control remaining” value worked out at 161.216%.

Regarding `CCOc1ccc(-c2ccnc(NCC(C)(C)CO)n2)cc1C(=O)O` [CBK307530], the “% of control remaining” value was found to be 129.999%.

Consider `O=C(N[C@H]1CO[C@H]2[C@@H]1OC[C@@H]2n1nnnc1-c1ccccc1)c1ccccc1` [CBK289482], for which the “% of control remaining” value was determined as 103.596%.

For `COc1ccc(O)c(C(=O)c2cnn(-c3ccc(Cl)c(C(=O)O)c3)c2)c1` [CBK297914], the “% of control remaining” value was 122.208%.

Take `CN1C(=O)CC2(C1=O)C(=O)N(Cc1ccccc1)c1ccc(F)cc12` (stereo not shown) [CBK075163]: the “% of control remaining” value is recorded as 96.5288%.

`CS(=O)(=O)Nc1cc(-c2noc([C@@H]3CCCN3Cc3ccncc3)n2)ccn1` [CBK288886]: the “% of control remaining” value is recorded as 121.215%.

As to `O=C(Nc1ccccc1)c1cc2sccc2s1` [CBK057696], the “% of control remaining” value is given as 59.9338%.

As for `CCCc1cc(=O)oc2cc(OCC(=O)OC(C)C)c(Cl)cc12` [CBK264459], the “% of control remaining” value is recorded as 133.322%.

With `COc1ccc(-c2nc(NC(=O)CSc3nnc(C)s3)ns2)cc1` [CBK267290], the “% of control remaining” value was determined as 137.512%.

As for `CCN(c1ccc(NC(=O)Cn2nc(C(=O)O)c3ccccc3c2=O)cc1)C(C)C` [CBK297734], the “% of control remaining” value is recorded as 142.904%.

Turning to `CCCC/C=C/c1cnc(N)c(-c2ccc(N3CCOCC3)cc2)n1` [CBK063891], the “% of control remaining” value was determined as 98.551%.

With `CC(C)(C)c1ccc(C(=O)NNC(=O)C(=O)Nc2ccccc2)cc1` [CBK261701], the “% of control remaining” value was found to be 118.545%.

On to `Cc1c(C(=O)O)sc(S(=O)(=O)N2CCN(C(=O)CCC3CCCC3)CC2)c1C(=O)O` [CBK297121], for which the “% of control remaining” value came out at 126.205%.

Turning to `CCn1cc(Br)c(C(=O)Nc2nccs2)n1` [CBK265890], the “% of control remaining” value turned out to be 109.985%.

Consider `CCOC(=O)N1CCC(NS(=O)(=O)c2cn(C)c(=O)n(C)c2=O)CC1` [CBK305699], for which the “% of control remaining” value came out at 114.227%.

Take `O=C(C1CCC1)N1CCC(n2nc(C3CC3)ccc2=O)CC1` [CBK284239]: the “% of control remaining” value turned out to be 107.715%.

Consider `C[C@H](NC(=O)N1CCN(C(=O)CCc2c[nH]c3ccccc23)CC1)C(=O)O` [CBK286774], for which the “% of control remaining” value was 106.385%.

Take `O=C(NC1CCCC1)c1ccccc1Cl` [CBK001992]: the “% of control remaining” value is given as 121.33%.

`NS(=O)(=O)c1ccc(CNC(=O)c2ccccc2Nc2cccc(C(F)(F)F)c2)cc1` [CBK149579]: the “% of control remaining” value is reported as 116.459%.

Take `N#Cc1nccnc1NCc1ccccc1CN1CCCC1CO` (stereo not shown) [CBK306418]: the “% of control remaining” value is 88.8225%.

As for `CCN(CC)CCn1c(=N)n(CC(=O)OC)c2ccccc21` [CBK262517B], the “% of control remaining” value worked out at 100%.

Take `O=C(O)Cn1c2ccccc2c2cc([N+](=O)[O-])ccc21` [CBK261732]: the “% of control remaining” value was found to be 100%.

Regarding `CCCn1nccc1S(=O)(=O)NCCN1CCCCC1CO` (stereo not shown) [CBK307259], the “% of control remaining” value was found to be 116.998%.

Take `NS(=O)(=O)c1cccc(NC(=O)c2cccnc2)c1` [CBK024417]: the “% of control remaining” value was found to be 100%.

As to `CC1=CC(C)C(CN(CCC[N+](C)(C)C)C(=O)Nc2ccccc2)C(C)C1` (stereo not shown) [CBK262507I], the “% of control remaining” value was found to be 100%.

As for `COc1ccc(C(=O)Nc2ccccc2Nc2cc(-c3ccccc3)nn2-c2ccccc2)cc1` [CBK261296], the “% of control remaining” value was found to be 53.9377%.

With `COc1cc(-c2ccc3ccc(=O)[nH]c3n2)cc(OC)c1OC` [CBK073721], the “% of control remaining” value was found to be 149.281%.

For `CC(C)C(NC(=O)c1cccc(-n2cnnc2)c1)c1cccs1` (stereo not shown) [CBK282442], the “% of control remaining” value was 105.464%.

As for `CCCCNCCOC1CCC[C@@H]1Cl` (stereo partly shown) [CBK009839], the “% of control remaining” value was 174.271%.
